{"source": "paper doi:10.1101/529172", "target": "T1, Pto (UniProt Q40234)", "T1 sequence": "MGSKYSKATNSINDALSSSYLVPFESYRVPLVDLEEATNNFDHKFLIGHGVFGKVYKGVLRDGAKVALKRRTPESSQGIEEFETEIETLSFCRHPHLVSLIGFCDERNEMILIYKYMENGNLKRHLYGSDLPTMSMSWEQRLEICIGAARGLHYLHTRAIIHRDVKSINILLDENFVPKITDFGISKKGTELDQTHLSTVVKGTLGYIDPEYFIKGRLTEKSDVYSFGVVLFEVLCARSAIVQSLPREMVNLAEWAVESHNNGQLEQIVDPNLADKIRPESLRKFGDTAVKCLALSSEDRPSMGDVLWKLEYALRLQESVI", "experiment": "two-hybrid", "note": "Results are given in words; binding and its absence hold for the method and conditions named.", "data": [{"substance": "SlMai1 in the yeast two-hybrid assay with Pto (tomato (Solanum lycopersicum))", "values": [{"measurement": "binding", "value": "no binding"}]}]}
